Experimental data: PubChem BioAssay AID743121 (NCATS, 2013)
Shown is one part, drawn at random, of about 26,000 deposited reagents. 167 of all reagents (0.63%) were called active. 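Calls are per gene from RSA p-values that are not deposited; an individual active-marked siRNA can sensitise only weakly.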 Unmarked entries are inactive. The numbers tell different reagents against one gene apart. Reagent sequences are not shown.

Assay: 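Knock-downs that sensitise breast cancer cells to camptothecin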 (primary screen)
System: MDA-MB-231 cells, a human breast cancer line
Reagents: single siRNA against human genes, 20 nM siRNA (0.8 pmol per well)
Timing: 120 h (drug added 48 h after transfection, read 72 h later)
Challenge: camptothecin 20 nM (about EC30) for 72 h; vehicle 0.1% DMSO in parallel plates
Measured: 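Cell viability by ATP luminescence (CellTiter-Glo) as % of non-targeting siRNA wells, and the log2 ratio of viability without drug over viability with camptothecin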
Scale: log2 vehicle/camptothecin viability: higher = stronger sensitisation to camptothecin; viability with camptothecin and viability without drug: higher = more viable cells
Call rule: 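Active genes have an RSA gene-level p-value below 0.001, computed from the ratios of their separate siRNAs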

no.	target	reagent no.	log2 vehicle/camptothecin viability	viability with camptothecin (% of control)	viability without drug (% of control)
1	CBLL1 (GeneID 79872)	1	-0.612	94.9	62.1
2	CBLL1 (GeneID 79872)	2	-0.318	36.6	29.4
3	CBLL1 (GeneID 79872)	3	-0.174	72.3	64.1
4	ETV7 (GeneID 51513)	1	-0.0634	91.9	87.9
5	ETV7 (GeneID 51513)	2	-0.188	98.6	86.6
6	ETV7 (GeneID 51513)	3	-0.0982	59.3	55.4
7	ETV7 (GeneID 51513)	4	-0.184	97.7	86
8	TRIP12 (GeneID 9320)	1	0.254	69.9	83.4
9	TRIP12 (GeneID 9320)	2	-0.273	87.2	72.2
10	TRIP12 (GeneID 9320)	3	0.526	19.8	28.6
11	TRIP12 (GeneID 9320)	4	-0.66	71.2	45.1

As entered above:
Value of ETV7 (GeneID 51513) #4 under “viability without drug (% of control)”: 86
Entry for TRIP12 (GeneID 9320) #1 under “viability with camptothecin (% of control)”: 69.9
Result for CBLL1 (GeneID 79872) #2 in “viability with camptothecin (% of control)”: 36.6

The results go on:
no.	target	reagent no.	log2 vehicle/camptothecin viability	viability with camptothecin (% of control)	viability without drug (% of control)
12	MDM2 (GeneID 4193)	1	0.242	51.8	61.3
13	MDM2 (GeneID 4193)	2	-0.145	56.8	51.3
14	MDM2 (GeneID 4193)	3	-0.0483	97.4	94.2
15	MDM2 (GeneID 4193)	4	-0.507	105	73.8
16	PTPN9 (GeneID 5780)	1	-0.0395	80.7	78.5
17	PTPN9 (GeneID 5780)	2	0.0946	102	109
18	PTPN9 (GeneID 5780)	3	-0.19	108	94.9
19	PTPN9 (GeneID 5780)	4	0.817	40.5	71.4
20	GFRA1 (GeneID 2674)	1	-0.146	66.9	60.5
21	GFRA1 (GeneID 2674)	2	1.33	28.9	72.5
22	GFRA1 (GeneID 2674)	3	0.0584	53.5	55.7
23	GFRA1 (GeneID 2674)	4	-0.501	32.5	22.9
24	DUSP26 (GeneID 78986)	1	-0.161	33.8	30.2
25	DUSP26 (GeneID 78986)	2	-0.113	85	78.6
26	DUSP26 (GeneID 78986)	3	-0.5	116	82.1
27	DUSP26 (GeneID 78986)	4	0.0246	80.8	82.2
28	ITPKB (GeneID 3707)	1	0.296	54.1	66.5
29	ITPKB (GeneID 3707)	2	0.658	51.6	81.4
30	ITPKB (GeneID 3707)	3	-0.00841	72.1	71.7
31	ITPKB (GeneID 3707)	4	-0.00846	95.3	94.7
